Assay results: PubChem BioAssay AID540275 (National Center for Advancing Translational Sciences (NCATS), 2011)
The whole screen tested about 320,000 compounds, of which about 620 (0.19%) were called active. Inconclusive means that the source gave no clear call. Such entries were picked first, then a sample of the others. No stated cut-off is given here; in the data, active means activation above about 80%; inconclusive means between about 30% and that limit; inactive means weaker than that.

By UniProt entry, the sequences of proteins in these tests, tags left out.
UniProt Q8NER1, whole entry, looked up: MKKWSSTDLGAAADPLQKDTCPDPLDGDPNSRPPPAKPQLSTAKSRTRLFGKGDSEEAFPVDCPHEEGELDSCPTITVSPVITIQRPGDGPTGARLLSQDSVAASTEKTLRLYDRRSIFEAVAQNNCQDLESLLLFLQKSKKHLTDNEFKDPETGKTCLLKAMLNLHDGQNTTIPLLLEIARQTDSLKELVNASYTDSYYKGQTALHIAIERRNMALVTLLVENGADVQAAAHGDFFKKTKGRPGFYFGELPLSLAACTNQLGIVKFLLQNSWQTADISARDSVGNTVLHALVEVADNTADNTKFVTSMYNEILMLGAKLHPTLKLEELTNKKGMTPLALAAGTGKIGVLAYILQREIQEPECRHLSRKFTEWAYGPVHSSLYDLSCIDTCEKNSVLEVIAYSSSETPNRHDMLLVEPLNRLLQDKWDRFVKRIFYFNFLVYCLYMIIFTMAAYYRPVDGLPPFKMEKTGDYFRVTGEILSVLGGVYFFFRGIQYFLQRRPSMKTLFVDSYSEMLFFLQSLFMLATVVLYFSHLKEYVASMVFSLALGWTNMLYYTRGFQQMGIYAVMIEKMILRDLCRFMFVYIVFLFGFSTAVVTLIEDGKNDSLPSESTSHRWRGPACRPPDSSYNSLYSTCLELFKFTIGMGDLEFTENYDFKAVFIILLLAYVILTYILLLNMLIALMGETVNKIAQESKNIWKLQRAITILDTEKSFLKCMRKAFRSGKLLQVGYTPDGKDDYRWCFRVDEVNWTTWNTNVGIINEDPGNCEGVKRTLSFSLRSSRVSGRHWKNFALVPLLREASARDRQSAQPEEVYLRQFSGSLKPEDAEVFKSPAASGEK

The molecules below were run against Transient receptor potential cation channel subfamily V member 1 (Homo sapiens) (UniProt Q8NER1) (assay: HTS Assay for Compounds that Act as Agonists of the Vanilloid Receptor 1). Conditions: TRPV1-expressing cells, Fluo-8 calcium influx, agonist mode; at 8.33 µM, stronger effect = higher value.
Method in brief: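 TRPV1-expressing cells were cultured overnight at 35.5C and loaded with Fluo-8 calcium dye for 40 to 90 min at room temperature. After a 10 s baseline, compound was added and calcium influx was read kinetically for 3 min (ex 480/em 520 nm).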
Further: 0% is about no effect.

Row | Structure (SMILES) | activation
1 | COc1cc(OC)cc(-c2nnc(NC(=O)CCS(=O)(=O)c3ccc(F)cc3)o2)c1 | inactive: -0.267%
2 | CCN(CC)c1ncnc2ccc(Br)cc12 | inactive: 0.108%
3 | Cc1ccc(OCCCCNC2CCCCC2)c(C)c1 | inactive: -4.5%
4 | COc1ccc(C)cc1NC(=O)CCN1CC(C)OC(C)C1 (stereo not drawn) | inactive: 0.746%
5 | CCOC(=O)C1=C(C)N(C)C(C)=C(C(=O)OCC)C1c1ccc(C(=O)OC)cc1 | inconclusive: 39.6%
6 | Cc1nc(N2CCN(c3ccccn3)CC2)c2c(C)c(C(=O)Nc3ccc(F)cc3F)sc2n1 | inconclusive: 49.2%
7 | CSCCC(NC(=O)COc1ccccc1)C(=O)N1CC(C)CC(C)C1 (stereo not drawn) | inconclusive: 30.8%
8 | CCCCN(C(=O)c1cccc(S(=O)(=O)N2CCN(Cc3ccccc3)CC2)c1)c1ccccc1 | inconclusive: 46.4%
9 | Cc1cccc(NC(=S)N2CCN(S(=O)(=O)c3ccc(F)cc3)CC2)c1 | inconclusive: 39.8%
10 | CCCn1nc(C(=O)Nc2nc3ccccc3[nH]2)c2ccccc2c1=O | inconclusive: 38.9%
11 | Cc1ccc(NC(=O)c2ccc3nsnc3c2)c(Cl)c1 | inconclusive: 47.5%
12 | CN1/C(=C\C(=O)COC(=O)c2nccnc2N)C(C)(C)c2ccccc21 | inconclusive: 31.1%
13 | CCOC(=O)c1c(CN2CCOCC2)n(-c2ccccc2)c2cc(Br)c(OC)cc12 | inactive: -3.19%
14 | COc1cc2c(cc1OC)C(C)N(S(=O)(=O)c1cn(C)cn1)CC2 (stereo not drawn) | inactive: -4%
15 | FC(F)Oc1ccc(-n2cc(-c3ccccc3)[n+]3c2CCCCC3)cc1 | inactive: -0.358%
16 | COc1cc(-c2nc(-c3ccc(NC(=O)c4ccc5c(c4)OCO5)cc3)no2)cc(OC)c1OC | inconclusive: 33.4%
17 | Cc1ccc(NC(=O)c2ccc(S(=O)(=O)NCC3CCCO3)cc2)cc1C (stereo not drawn) | inconclusive: 46.7%
18 | Cc1ccc(-c2cc3c(N=O)c4ccccc4c-3n[nH]2)cc1 | inactive: 3.25%
19 | c1ccc(-c2cc3c(NCC4COc5ccccc5O4)ncnc3s2)cc1 (stereo not drawn) | inconclusive: 31.7%
20 | CCCC1=Nc2cc(C(=O)NCCN3CCOCC3)ccc2Sc2ccccc21 | inconclusive: 43.3%

Row | Structure (SMILES) | activation
21 | C(=N\N(c1ccccc1)c1ccccc1)/c1ccccn1 | inconclusive: 37.2%
22 | O=C1/C(=C/c2cccnc2)SC(=NCc2ccccc2)N1Cc1ccccc1 | inconclusive: 39.7%
23 | CC(C)CSC1=NSC2=NC(=O)/C(=C\c3coc4ccccc4c3=O)C(=N)N12 | inactive: 24.3%
24 | O=C(Nc1ccc2c(c1)OCCO2)c1ccc(CN2CCOCC2)cc1 | inconclusive: 32.6%
25 | COc1cc(NC(=O)c2cc([N+](=O)[O-])ccc2N2CCOCC2)ccc1NC(=O)c1ccco1 | inactive: 0.436%
26 | N#C/C(=C\c1c(Cl)cccc1Cl)c1nc2ccccc2[nH]1 | inconclusive: 43.5%
27 | CCOc1ccccc1OCc1nn2c(-c3ccc(C)cc3)nnc2s1 | inconclusive: 33.9%
28 | Cc1ccnc(Nc2nc(-c3ccc(O)c(O)c3)cs2)c1 | inconclusive: 47.9%
29 | Cc1ccc(SCCC(=O)OC(C)C(=O)Nc2ccccc2)cc1 (stereo not drawn) | inconclusive: 33.9%
30 | O=C(Nc1ccc(N2CCCCC2)cc1)c1ccc(F)cc1 | inconclusive: 68.8%
31 | O=C(NCCCc1ccccc1)c1cc(COc2c(F)cccc2F)on1 | inconclusive: 54.9%
32 | Cc1ccc(NC(=O)c2ccc3snnc3c2)cc1C | inconclusive: 59.5%
33 | COc1c(F)cccc1C1=CC(=O)C[C@H](c2ccc3c(c2)OCO3)C1 | inconclusive: 39.1%
34 | COCCNC(=O)c1ccc2c(Cl)c3c(nc2c1)CCC3 | inconclusive: 37.7%
35 | Cc1ccc(NC(=O)c2cc(C)no2)cc1 | inconclusive: 40.9%
36 | Clc1ccc2nc(-c3ccc(Cl)nc3)[nH]c2c1 | inconclusive: 51.1%
37 | COc1ccc(F)cc1CN1CCN(c2cc(C)nc3c4c(C)cc(C)nc4nn23)CC1 | inconclusive: 53.1%
38 | Cn1ccsc1=NC(=O)c1ccc([N+](=O)[O-])o1 | inconclusive: 71.6%
39 | CCOC(=O)C1(CC2CCCCO2)CCN(S(=O)(=O)c2cc(C)cs2)CC1 (stereo not drawn) | inconclusive: 30.8%
40 | CC(C)(C)SCCNC(=O)/C=C/c1ccccc1 | inconclusive: 59.1%

Row | Structure (SMILES) | activation
41 | O=c1c2cc(Br)ccc2[nH]c(=S)n1Cc1ccccc1 | inconclusive: 45.5%
42 | Cc1ccc(-n2nc(C)c3c(C)c(CCC(=O)NC(C)c4ccccc4)c(C)nc32)cc1 (stereo not drawn) | inconclusive: 44.7%
43 | CCN(CC)C(=O)c1cc(-c2ccc(Br)cc2)on1 | inconclusive: 37.2%
44 | Cc1cccc(N(CC(=O)NC2CC3CCC2C3)S(=O)(=O)c2ccccc2)c1 (stereo not drawn) | inconclusive: 33.6%
45 | O=C(CSc1nc2ccccc2nc1N1CCCC1)Nc1ccc(F)cc1 | inconclusive: 68.4%
46 | CCc1cccc(NS(=O)(=O)c2ccc3c(c2)NC(=O)CO3)c1 | inconclusive: 36.1%
47 | CN1CCN(c2ccc(NC(=O)c3ccc(C(F)(F)F)cc3)cn2)CC1 | inconclusive: 40.7%
48 | O=C(NCCSc1c[nH]c2ccccc12)c1ccc(Br)o1 | inconclusive: 38.6%
49 | CC1CCN(C2=NC(=O)/C(=C/c3ccc(O)cc3)S2)CC1 | inactive: 2.66%
50 | CCCn1cnc2cc(NCc3cccc(OC)c3)ccc21 | inactive: -0.893%
51 | NNC(=O)CNc1cccc(Br)c1 | inconclusive: 51.5%
52 | CC(C)(C)c1ccccc1NC(=S)NCc1ccccc1 | inconclusive: 30.5%
53 | CN1C(=O)N(C)C2(c3ccccc3)N(C(C)(C)C)C(=O)NC12c1ccccc1 (stereo not drawn) | inconclusive: 58.9%
54 | CN1CCN(CCC(=O)N2c3ccccc3Sc3ccc(C(F)(F)F)cc32)CC1 | inactive: -1.11%
55 | COc1ccccc1C(=O)COC(=O)C(CCSC)NC(=O)COc1ccccc1 (stereo not drawn) | inactive: 6.32%
56 | CC(=O)N1CCN(Cc2nc3cc(NC(=O)c4ccccc4Cl)ccc3n2C)CC1 | inactive: 1.03%
57 | COc1ccc(N2CCN(CCCn3c(=S)[nH]c4ccccc4c3=O)CC2)cc1 | inactive: 24.8%
58 | O=C(c1ccncc1)N1CCN(c2cccc(C(F)(F)F)c2)CC1 | inconclusive: 35%

Numbers 47 to 49 of the list above:
Row | Structure (SMILES) | activation
47 | CN1CCN(c2ccc(NC(=O)c3ccc(C(F)(F)F)cc3)cn2)CC1 | inconclusive: 40.7%
48 | O=C(NCCSc1c[nH]c2ccccc12)c1ccc(Br)o1 | inconclusive: 38.6%
49 | CC1CCN(C2=NC(=O)/C(=C/c3ccc(O)cc3)S2)CC1 | inactive: 2.66%
